# Where a name gives a salt, the structure may show the parent alone.
# Molecular target: T1, aromatase (Homo sapiens, UniProt P11511)
# T1 construct: A microsomal fraction is prepared from human placenta by the method essentially as described by Thompson and Siiteri; from tissue; host or cells: human placenta, microsomal fraction (lyophilized)
# T1 sequence (P11511 1-503): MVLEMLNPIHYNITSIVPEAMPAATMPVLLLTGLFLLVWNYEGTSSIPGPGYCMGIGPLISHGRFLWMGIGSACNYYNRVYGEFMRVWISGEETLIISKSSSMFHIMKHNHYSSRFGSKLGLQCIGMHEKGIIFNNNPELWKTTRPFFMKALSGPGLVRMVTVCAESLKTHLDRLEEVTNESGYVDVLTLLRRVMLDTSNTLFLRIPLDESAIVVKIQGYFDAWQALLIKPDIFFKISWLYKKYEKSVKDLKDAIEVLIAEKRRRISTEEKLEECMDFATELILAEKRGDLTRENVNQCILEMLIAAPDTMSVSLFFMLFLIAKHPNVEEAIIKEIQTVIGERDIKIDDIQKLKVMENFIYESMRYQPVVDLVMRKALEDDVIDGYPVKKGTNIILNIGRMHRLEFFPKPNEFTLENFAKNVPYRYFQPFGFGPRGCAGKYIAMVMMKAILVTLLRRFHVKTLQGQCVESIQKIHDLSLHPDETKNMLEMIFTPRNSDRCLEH
# Assay: in vitro inhibition of aromatase activity (human placental microsomes, aromatization of [1,2-^3 H]-androstenedione)
# Format: biochemical
# Conditions: 20 minutes at 37° C
# Protocol: The microsomal preparation so obtained is lyophilized and stored at -40° C.
# The assay is conducted substantially as described by Thompson and Siiteri. The human placental microsomes are added to [1,2-^3 H]-androstenedioneand incubated for 20 minutes at 37° C. The amount of aromatization of the labelled substrate is detected by the […] of ^3 H2 O into the incubation medium. The substrate is removed by chloroform extraction, followed by adsorption to charcoal in suspension. The charcoal is removed by centrifugation and the steroid-free medium is counted in a liquid scintillation counter. Compounds are tested for aromatase inhibitory activity by adding them to the incubation medium prior to the addition of the microsomes. The relative cpm obtained with and without the inhibitor is used to calculate the percent inhibition of the aromatization of androstenedione to estrone.
row,IC50 [nM],SMILES
1,~10,"N#Cc1ccc(Cn2ccnc2)cc1 [Example 1a, 4-(1-imidazolylmethyl)-benzonitrile]"
2,~1.5,"N#Cc1ccc(Cn2ccnc2)c2ccccc12 [Example 1c, 4-(1-imidazolylmethyl)-1-naphthonitrile hydrochloride]"

# From patent US5112845A, “Alpha-heterocycle substituted tolunitriles” (Ciba-Geigy Corporation, priority 1990, dated 1992)
